Measured values reported in PubChem BioAssay AID651768 (National Center for Advancing Translational Sciences (NCATS), 2012).
Several values for one entry are separate records, joined by “and”; a condition that tells them apart may be missing. Equal values may be shown once. Out of some 360,000 compounds screened, about 1,700 (0.47%) were called active. Inconclusive means that the source gave no clear call. Such entries were picked first, then a sample of the others. Calls come from the whole dose curve; as a rule, active = well fitted inhibition curve with a large enough effect; inconclusive = small, poorly fitted or top-dose-only effect; inactive = no such curve, though single readings can be large or run the other way. Potencies of inconclusive entries are doubtful fits and often do not repeat.

By UniProt entry, the sequences of proteins in these tests, tags left out.
UniProt Q14191, whole entry, looked up: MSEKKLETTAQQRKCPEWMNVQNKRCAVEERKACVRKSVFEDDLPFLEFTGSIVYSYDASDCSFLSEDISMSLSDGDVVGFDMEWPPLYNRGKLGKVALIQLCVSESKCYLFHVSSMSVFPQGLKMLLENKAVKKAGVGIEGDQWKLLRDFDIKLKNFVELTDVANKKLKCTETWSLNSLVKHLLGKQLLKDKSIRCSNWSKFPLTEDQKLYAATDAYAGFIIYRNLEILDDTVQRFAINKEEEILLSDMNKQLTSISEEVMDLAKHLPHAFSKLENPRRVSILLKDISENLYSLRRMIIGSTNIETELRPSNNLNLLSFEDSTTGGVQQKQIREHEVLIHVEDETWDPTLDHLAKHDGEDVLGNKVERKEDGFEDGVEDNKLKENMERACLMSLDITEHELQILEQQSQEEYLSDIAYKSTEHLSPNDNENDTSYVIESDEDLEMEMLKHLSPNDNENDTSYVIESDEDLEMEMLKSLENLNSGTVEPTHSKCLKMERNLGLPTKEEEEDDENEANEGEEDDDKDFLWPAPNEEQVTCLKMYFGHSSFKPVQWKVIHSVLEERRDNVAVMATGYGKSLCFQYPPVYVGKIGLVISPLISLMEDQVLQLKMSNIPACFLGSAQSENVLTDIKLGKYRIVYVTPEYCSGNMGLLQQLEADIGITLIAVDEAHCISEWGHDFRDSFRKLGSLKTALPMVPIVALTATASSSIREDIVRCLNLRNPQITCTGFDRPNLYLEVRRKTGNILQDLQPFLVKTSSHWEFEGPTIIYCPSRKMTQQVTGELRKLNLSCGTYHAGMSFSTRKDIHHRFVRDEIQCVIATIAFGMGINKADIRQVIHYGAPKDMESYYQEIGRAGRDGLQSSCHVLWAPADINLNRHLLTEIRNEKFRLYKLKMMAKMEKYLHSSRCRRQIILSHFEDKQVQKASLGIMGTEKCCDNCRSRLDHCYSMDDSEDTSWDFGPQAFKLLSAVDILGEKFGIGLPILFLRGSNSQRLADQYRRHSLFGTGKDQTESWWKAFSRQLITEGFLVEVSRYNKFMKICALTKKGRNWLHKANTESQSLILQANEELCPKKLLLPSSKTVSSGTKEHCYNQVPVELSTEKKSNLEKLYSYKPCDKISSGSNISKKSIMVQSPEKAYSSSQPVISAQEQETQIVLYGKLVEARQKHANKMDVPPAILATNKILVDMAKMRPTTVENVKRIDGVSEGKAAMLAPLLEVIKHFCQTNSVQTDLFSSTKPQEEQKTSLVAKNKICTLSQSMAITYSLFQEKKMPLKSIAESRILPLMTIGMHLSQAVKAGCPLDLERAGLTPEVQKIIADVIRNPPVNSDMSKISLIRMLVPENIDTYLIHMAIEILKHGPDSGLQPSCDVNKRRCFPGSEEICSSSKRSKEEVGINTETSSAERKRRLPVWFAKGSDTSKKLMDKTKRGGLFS

Molecular target: Bifunctional 3'-5' exonuclease/ATP-dependent helicase WRN (Homo sapiens) (UniProt Q14191)
Test: qHTS for Inhibitors of WRN Helicase; note: nearly all actives have a fitted effect of over 55% in size
Settings: WRN helicase unwinding, fluorescent forked duplex, kinetic; activity change, negative = inhibition: at 114 µM (top of the series) unless noted
Procedure, shortened: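 Screening of the MLSMR collection measured strand separation of a quenched forked DNA duplex (100 nM) by 20 nM WRN with 2 mM ATP, all final. Compounds were preincubated with enzyme 15 min at room temperature.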
% is set by controls: 0 for no effect and ±100 for the full control effect; potency is the fitted concentration of half-maximal effect.

| SMILES | Potency | activity change, negative = inhibition |
| --- | --- | --- |
| Cc1cccc(C)c1OC(=O)Cc1ccccc1 | inconclusive: 25.1 µM [inhibitor, single point] |  |
| O=C1NC(=O)N(Cc2ccco2)C(=O)/C1=C/c1cccn1CCOc1ccccc1Cl | inconclusive: 70.8 µM [inhibitor, single point] |  |
| Cc1cccc(-n2c(O)c(/C=N/Nc3nc4c(c(=O)n(C)c(=O)n4C)n3C)c(=O)[nH]c2=S)c1 | inconclusive: 25.1 µM [inhibitor, full curve, poor fit] |  |
| CCOc1ccc(N2C(=O)NC(=O)/C(=C\c3cc(OC)c(OC)cc3[N+](=O)[O-])C2=O)cc1 | inconclusive: 28.2 µM [inhibitor, single point] |  |
| CN1C(=O)C(=Cc2ccc(N3CCCCCC3)cc2)C(=O)N(C)C1=O | inconclusive: 31.6 µM [inhibitor, partial curve] |  |
| Nc1cc2nc3ccccc3nc2cc1N | inconclusive: 3.55 µM [inhibitor, full curve, poor fit] |  |
| Cc1cc(O)c2c(c1)C(=O)C13C(=C2O)C(=O)[C@H]2[C@@H](O)[C@@H]1[C@H]1[C@H](O)[C@@H]3C(=O)C3=C(O)c4c(O)cc(C)cc4C(=O)C312 (some centres not stated) | inconclusive: 7.08 µM [inhibitor, full curve, poor fit] |  |
| CCC(C)N1C(=O)/C(=C\c2ccc(N3CCCCCC3)cc2)C(=O)NC1=S (configuration not stated) | inconclusive: 28.2 µM [inhibitor, partial curve, poor fit] |  |
| Cc1ccc(-n2sc3ccccc3c2=O)cc1 | inconclusive: 25.1 µM [inhibitor, single point] |  |
| O=[N+]([O-])c1ccc(N2CCCCCC2)c2nonc12 | active: 22.4 µM |  |
| Cc1cc(C)c2c(c1)NP(=S)(c1ccccc1)N2 (configuration not stated) | inconclusive: 35.5 µM [inhibitor, full curve, poor fit] |  |
| NC(N)=Nc1ccc2[nH]c3c(c2c1)C[C@@]1(O)[C@H]2Cc4ccc(O)c5c4[C@@]1(CCN2CC1CC1)C3O5 (some centres not stated) | inconclusive: 39.8 µM [inhibitor, partial curve] |  |
| C=CCN1C(=O)NC(=O)/C(=C/c2c(CCN(C)C(=O)c3ccccc3)cc3c(c2OC)OCO3)C1=O |  | inactive: -2.53% |
| Cc1ccc(OCCn2cccc2/C=C2/C(=O)NC(=O)N(Cc3ccco3)C2=O)cc1 | inconclusive: 50.1 µM [inhibitor, partial curve] |  |
| CCOc1ccc(N2C(=O)/C(=C/c3ccc(C)o3)C(=O)NC2=S)cc1 | active: 44.7 µM |  |
| COC1CC2C=C(C)C=CC=CC(=O)NC(c3ccccc3)CC=CCCC(O)CC(=O)C2=C1O (configuration not stated) | inconclusive: 44.7 µM [inhibitor, partial curve] |  |
| Cc1ccc(N)c(C)c1 |  | inactive: 2.66% |
| CN1C(=O)/C(=C\N2CCc3ccccc32)C(=O)NC1=S | active: 50.1 µM |  |
| CN(C)[C@@H]1C(=O)C(C(N)=O)=C(O)[C@@]2(O)C(=O)C3=C(O)c4c(O)cccc4[C@@](C)(O)[C@H]3[C@H](O)[C@@H]12 | active: 14.1 µM and active: 20 µM |  |
| C=CCNC(=O)c1c(N)n(Cc2ccco2)c2nc3ccccc3nc12 | inconclusive: 44.7 µM [inhibitor, partial curve] |  |
| COCCCn1c(N)c(C(=O)OCCOC)c2nc3ccccc3nc21 |  | inactive: -7.43% |
| COc1cc(OC)c(OC)cc1/C=C1/C(=O)NC(=O)N(Cc2ccccc2)C1=O | active: 79.4 µM |  |
| O=C(O)Cn1cc(/C=C2\C(=O)NC(=O)N(Cc3ccco3)C2=O)c2ccccc21 | active: 39.8 µM |  |

| SMILES | Potency | activity change, negative = inhibition |
| --- | --- | --- |
| Nc1c2c(nc3sc4c(c13)CCCC4)CCCCC2 | inconclusive: 56.2 µM [inhibitor, partial curve] |  |
| O=C(Nc1ccc(F)cc1F)c1cccn(Cc2ccccc2)c1=O |  | inactive: -1.84% |
| CCN1C(=O)NC(=O)/C(=C/c2cc(C)n(-c3sc(C)c(C)c3C#N)c2C)C1=O | inconclusive: 28.2 µM [inhibitor, single point] |  |
| Clc1ccc(C(c2ccc(Cl)cc2)n2cc[n+](CC(OCc3ccc(Cl)cc3Cl)c3ccc(Cl)cc3Cl)c2)cc1 (configuration not stated) | inconclusive: 50.1 µM [inhibitor, partial curve] |  |
| Cc1cccc(-n2c(O)c(C=Nc3ccc(Br)cn3)c(=O)[nH]c2=O)c1 | inconclusive: 89.1 µM [inhibitor, single point] |  |
| C=CCC1C(=O)NC(=S)NC1=O | inconclusive: 25.1 µM [inhibitor, single point] |  |
| Cc1ccc(/C=C2\C(=O)NC(=S)N(c3cccc(F)c3)C2=O)o1 | active: 50.1 µM |  |
| COCCNC(=O)Cn1cc(/C=C2\C(=O)NC(=O)N(c3cccc(C)c3C)C2=O)c2ccccc21 | inconclusive: 35.5 µM [inhibitor, partial curve] |  |
| O=C(O)c1ccccc1-c1ccc(C=C2C(=O)N(c3ccccc3)C(=S)N(c3ccccc3)C2=O)o1 | inconclusive: 50.1 µM [inhibitor, partial curve] |  |
| O=c1c(O)c(-c2ccc(O)c(O)c2)oc2cc(O)cc(O)c12 | inconclusive: 3.16 µM [inhibitor, full curve] |  |
| CCC(C)N1C(=O)NC(=O)C2(Cc3c(ccc4ccccc34)N(C)C2)C1=O (configuration not stated) |  | inactive: -12.1% |
| CCOC(=O)C1CCCN(c2ccc([N+](=O)[O-])c3nonc23)C1 (configuration not stated) | inconclusive: 5.32 µM [inhibitor, partial curve] |  |
| O=C1NC(=O)N(Cc2ccc(F)cc2)C(=O)/C1=C\c1ccc(N2CCCC2)cc1 | inconclusive: 35.5 µM [inhibitor, partial curve, poor fit] |  |
| O=C(O)CCn1cc(C=C2C(=O)NC(=S)NC2=O)c(-c2cccc(Br)c2)n1 | active: 31.6 µM |  |
| O=c1c2ccccc2nc(/C=C/c2ccc(O)cc2)n1-c1cccc(O)c1 | inconclusive: 56.2 µM [inhibitor, partial curve] |  |
| O=C1NC(=O)N(Cc2ccccc2)C(=O)/C1=C\c1ccco1 | active: 31.6 µM |  |
| NS(=O)(=O)c1ccc(-c2ccc(C=C3C(=O)NC(=O)NC3=O)o2)cc1 |  | inactive: -24.3% [at 11.6 µM] |
| COc1ccc(OC)c(-n2c(O)c(/C=C3\C=Nc4ccccc43)c(=O)[nH]c2=O)c1 |  | inactive: -7.49% |
| CC(=O)Nc1ccc(C=C2C(=O)NC(=O)NC2=O)cc1 | inconclusive: 15.8 µM [inhibitor, full curve] |  |
| O=C1NC(=O)N(Cc2ccco2)C(=O)/C1=C\c1cccn1CCOc1ccc(Cl)cc1 | active: 50.1 µM |  |
| O=C(c1ccccc1)c1cn(CC(=O)N2CCCC2)c2ccccc12 |  | inactive: -4.84% |
| COc1ccccc1-n1c(O)c(/C=N/N2CCCCC2)c(=O)n(-c2ccccc2OC)c1=S |  | inactive: -4.42% |
| CCN(CCCl)c1cc(CN(C)C)cc(NC(=O)c2ccc(C(=O)Nc3cc(CN(C)C)cc(N(CC)CCCl)c3)cc2)c1 | inconclusive: 31.6 µM [inhibitor, full curve] |  |

| SMILES | Potency | activity change, negative = inhibition |
| --- | --- | --- |
| COc1ccc(C=C2C(=O)N(C)C(=O)N(C)C2=O)cc1CSc1ccccn1 | inconclusive: 50.1 µM [inhibitor, partial curve] |  |
| CN1CCN(C(=S)c2ccc([N+](=O)[O-])cc2)CC1 | inconclusive: 89.1 µM [inhibitor, single point] |  |
| CC[n+]1c(-c2ccccc2)c2cc(N)ccc2c2ccc(N)cc21 | active: 2.99 µM |  |
| COc1cc(OC)c(OC)cc1/C=C1\C(=O)NC(=O)N(Cc2ccccc2)C1=O | active: 79.4 µM |  |
| CCS(=O)(=O)N1N=C(c2cccc(NS(C)(=O)=O)c2)CC1c1ccccc1 (configuration not stated) | active: 50.1 µM |  |
| O=[N+]([O-])c1cc(S(=O)(=O)c2ccc(O)c([N+](=O)[O-])c2)ccc1O | inconclusive: 21.2 µM [inhibitor, partial curve] |  |
| N/C(=N/[N+](=O)[O-])N1CCN(C(=O)c2ccc(Cl)cc2)CC1 |  | inactive: 12.4% |
| O=C1NC(=O)N(Cc2ccco2)C(=O)/C1=C/C=C/c1ccco1 | active: 20 µM |  |
| Cn1cccc1/C=C1/C(=O)NC(=S)N(Cc2ccc(F)cc2)C1=O | active: 56.2 µM |  |
| CN1C(=O)C(=Cc2ccc(SC3CCCCC3)o2)C(=O)N(C)C1=O |  | inactive: -31.9% |
| O=C(COc1ccccc1)Nc1ccc(Cl)cc1C(=O)c1ccccc1 | inconclusive: 39.8 µM [inhibitor, single point] |  |
| CN1CCN(/N=C/c2c(O)n(CCC3=CCCCC3)c(=S)[nH]c2=O)CC1 | inconclusive: 17.8 µM [inhibitor, single point] |  |
| CC1=NNC(=O)C1Br (configuration not stated) | active: 28.2 µM |  |
| Cc1cccc(OCCn2cccc2/C=C2/C(=O)NC(=O)N(Cc3ccco3)C2=O)c1 | inconclusive: 50.1 µM [inhibitor, partial curve] |  |
| CC(=O)Nc1ccc(N=Cc2c(O)n(Cc3ccco3)c(=O)[nH]c2=O)cc1 | inconclusive: 50.1 µM [inhibitor, partial curve] |  |
| CCC(C)N1C(=O)/C(=C\c2cnc(N(C)C)nc2)C(=O)NC1=S (configuration not stated) | active: 50.1 µM |  |
| COc1ccc(CN2C(=O)NC(=O)/C(=C/c3ccoc3)C2=O)cc1 | active: 39.8 µM |  |
| O=C1NC(=O)C(=Cc2ccc(SC3CCCCC3)o2)C(=O)N1 | inconclusive: 56.2 µM [inhibitor, partial curve] |  |
| COc1cc2c(cc1OC)C(c1c(O)n(CCc3ccccc3)c(=S)[nH]c1=O)NCC2 (configuration not stated) | inconclusive: 70.8 µM [inhibitor, single point] |  |
| Cc1cc(C=C2C(=O)N(C)C(=S)N(C)C2=O)c(C)n1-c1ccncc1 | inconclusive: 70.8 µM [inhibitor, single point] |  |
| O=C1C(=Cc2cn(-c3ccccc3)nc2-c2ccc(OCc3ccc(Cl)cc3)cc2)SC(=S)N1CCS(=O)(=O)O | active: 14.1 µM |  |
